The text below walks through data of PubChem BioAssay AID252 (DTP/NCI, 2004).

The assay has as its system BDF1 mice, intracerebral L1210 leukemia, survival T/C. The experiment in a line: NCI In Vivo Anticancer Drug Screen. Data for tumor model L1210 Leukemia (intracerebral) in B6D2F1 (BDF1) mice. The settings on record: vehicle: saline, higher T/C = longer survival. On the procedure:
The antitumor activity of compounds was measured in mice bearing transplantable tumors. Survival or tumor size were measured and the results are expressed as the measurement made in the treated group (T) divided by the measurement made in the vehicle treated control group (C). The tumor model used in this assay is L1210 Leukemia (intracerebral) in B6D2F1 (BDF1) mice

The list shows only some results of the screen, not a fair sample: it gathers some chemical classes. Other doses and runs of a compound may be missing. T/C: endpoint of the treated group in % of that of the vehicle group. For survival time, the PubChem record calls one and a half times the control and up active, and a quarter to a half above the control has no call in these data; cut-offs in other NCI protocols can differ. Some entries show no survivor count and are marked so; the dose need not have been tolerated. Schedules are NCI's codes, read here as Q, the interval in days (D) or hours (H), X, the number of doses. Some entries were tested several times; their values stand side by side, smallest first.

With `CN(CCCl)CCCl`, the T/C is, setting by setting: (T/C endpoint: mean survival time, dose: 0.13 mg/kg/injection, schedule: Q01DX015 (ip)) 102 % of control [survivor count not shown]; (T/C endpoint: mean survival time, dose: 0.2 mg/kg/injection, schedule: Q01DX015 (ip)) 101 % of control [survivor count not shown]; (T/C endpoint: mean survival time, dose: 0.3 mg/kg/injection, schedule: Q01DX015 (ip)) 103 % of control [survivor count not shown]; (T/C endpoint: mean survival time, dose: 1.3 mg/kg/injection, schedule: Q01DX001 (ip)) 104 % of control [survivor count not shown]; (T/C endpoint: mean survival time, dose: 1.5 mg/kg/injection, schedule: Q01DX001 (ip)) 102 % of control [survivor count not shown]; (T/C endpoint: mean survival time, dose: 1.9 mg/kg/injection, schedule: Q01DX001 (ip)) 103 % of control [survivor count not shown]. Also, the T/C was 105 [survivor count not shown] and 110 % of control [survivor count not shown] (T/C endpoint: mean survival time, dose: 2.0 mg/kg/injection, schedule: Q01DX001 (ip)); 96 [survivor count not shown] and 110 % of control [survivor count not shown] (T/C endpoint: mean survival time, dose: 2.5 mg/kg/injection, schedule: Q01DX001 (ip)); 101 % of control [survivor count not shown] (T/C endpoint: mean survival time, dose: 2.9 mg/kg/injection, schedule: Q01DX001 (ip)); 97 [survivor count not shown] and 111 % of control [survivor count not shown] (T/C endpoint: mean survival time, dose: 3.0 mg/kg/injection, schedule: Q01DX001 (ip)); 98 [survivor count not shown] and 120 % of control [survivor count not shown] (T/C endpoint: mean survival time, dose: 3.5 mg/kg/injection, schedule: Q01DX001 (ip)); 92 % of control [survivor count not shown] (T/C endpoint: mean survival time, dose: 4.0 mg/kg/injection, schedule: Q01DX001 (ip)). Also, the T/C runs as follows: (T/C endpoint: mean survival time, dose: 4.5 mg/kg/injection, schedule: Q01DX001 (ip)) 87 % of control [survivor count not shown]; (T/C endpoint: median survival time, dose: 1.5 mg/kg/injection, schedule: Q01DX001 (oral)) 104 % of control [survivor count not shown]; (T/C endpoint: median survival time, dose: 3.0 mg/kg/injection, schedule: Q01DX001 (oral)) 101 % of control [survivor count not shown]; (T/C endpoint: median survival time, dose: 6.0 mg/kg/injection, schedule: Q01DX001 (oral)) 103 % of control [survivor count not shown]; (T/C endpoint: median survival time, dose: 12.0 mg/kg/injection, schedule: Q01DX001 (oral)) 109 % of control [survivor count not shown]; (T/C endpoint: median survival time, dose: 24.0 mg/kg/injection, schedule: Q01DX001 (oral)) 103 % of control [survivor count not shown].
